# Measured values reported in the supplement of paper PMC11006884.
# This is a selection; strong and weak results do not stand in their true shares.
# Compound: COC(=O)C#Cc1ccccc1 [methyl 3-phenylpropiolate]
# Experiment: log2 ratio of iodoacetamide-alkyne labeling of the cysteine site, DMSO over compound (competition); higher = stronger covalent engagement of the cysteine by the compound, active = 1 or more
# Settings: 500 µM; treatment time 1 h; system: HEK293T cell lysate
# Method in brief: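 Three replicates, each with duplicate channels, were prepared from HEK293T lysate (2 mg/mL) treated with vehicle or electrophile at 500 µM for 1 h at ambient temperature. Iodoacetamide alkyne was then applied for 1 h, and samples were clicked to sCIP-TMT reagents, pooled, trypsin-digested overnight at 37 °C, enriched on streptavidin, acid-eluted and analysed on Orbitrap Eclipse LC-MS/MS with FAIMS, with FragPipe quantification. The log2 competition ratio per cysteine is the mean control-channel divided by the mean compound-channel reporter intensity. Cysteines quantified in only one replicate were left out.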
row,Target,log2 ratio of iodoacetamide-alkyne labeling
1,MYBBP1A C614 (UniProt Q9BQG0),inactive: -0.148
2,CCT7 C345 (UniProt Q99832),inactive: 0.0372
3,SIN3A C486 (UniProt Q96ST3),inactive: -0.0562
4,DOCK6 C1853 (UniProt Q96HP0),inactive: 0.374
5,SPAG5 C589 (UniProt Q96R06),inactive: 0.273
6,SH3GL1 C147 (UniProt Q99961),inactive: 0.168
7,CDC5L C96 (UniProt Q99459),inactive: -0.0212
8,FNBP1 C609 (UniProt Q96RU3),inactive: -0.0223
9,ACO2 C448 (UniProt Q99798),active: 1.71
10,SRPK1 C455 (UniProt Q96SB4),inactive: 0.0406
11,VAT1 C86 (UniProt Q99536),inactive: 0.362
12,MMS19 C599 (UniProt Q96T76),inactive: 0.154
13,NACC1 C464 (UniProt Q96RE7),inactive: 0.0219
14,NSD1 C1689 (UniProt Q96L73),inactive: 0.216
15,ATAD5 C1529 (UniProt Q96QE3),inactive: 0.295
16,CPNE1 C4 (UniProt Q99829),inactive: -0.0709
17,TMEM209 C367 (UniProt Q96SK2),inactive: 0.176
18,RPRD1A C100 (UniProt Q96P16),inactive: 0.124
19,L3MBTL3 C169 (UniProt Q96JM7),inactive: 0.681

# Shown with tabs: entries from further up.
row	Target	log2 ratio of iodoacetamide-alkyne labeling
9	ACO2 C448 (UniProt Q99798)	active: 1.71
10	SRPK1 C455 (UniProt Q96SB4)	inactive: 0.0406

# (listing goes on)

row,Target,log2 ratio of iodoacetamide-alkyne labeling
1,SNX27 C247 (UniProt Q96L92),inactive: 0.286
2,CRBN C188 (UniProt Q96SW2),inactive: 0.148
3,INTS4 C109 (UniProt Q96HW7),inactive: -0.26
4,SUCLG2 C162 (UniProt Q96I99),inactive: 0.437
5,SEC22A C111 (UniProt Q96IW7),inactive: 0.105
6,MED15 C618 (UniProt Q96RN5),inactive: 0.323
7,CNN2 C175 (UniProt Q99439),active: 1.04
8,RUFY1 C544 (UniProt Q96T51),inactive: 0.0736
9,EP400 C162 (UniProt Q96L91),inactive: 0.339
10,UHRF1 C512 (UniProt Q96T88),inactive: 0.219
11,CCDC138 C28 (UniProt Q96M89),inactive: 0.572
12,UniProt Q96JM3_C194,inactive: 0.155
13,UniProt Q99590_C566,inactive: 0.15
14,DOK1 C224 (UniProt Q99704),inactive: 0.25
15,SCLT1 C38 (UniProt Q96NL6),inactive: -0.0796
16,ACO2 C740 (UniProt Q99798),inactive: 0.656
17,TBCB C83 (UniProt Q99426),inactive: -0.0452
18,POP1 C745 (UniProt Q99575),inactive: 0.439
